Our source for the binding values is article PMC2444042.

The experiment has as its target GST-AIP4 fusion protein (human). The experiment can be described thus: pull-down; GST-AIP4 or control GST on glutathione-agarose beads; 35S-labelled in vitro translation products incubated 2 hours at 4°C in 1% Triton-containing buffer; SDS-PAGE and fluorography; Notch ICs tested alone and with DTX (0.5 or 3 µl) or numb; only the target purified.

Results are given in words; binding and its absence hold for the method and conditions named. Binding seen in cells or lysates may run through a third protein. Binding calls can cover weak binding; strength is not graded here.

B1: numb (protein, UniProt P49757 1-651)
chain: MNKLRQSFRRKKDVYVPEASRPHQWQTDEEGVRTGKCSFPVKYLGHVEVDESRGMHICEDAVKRLKAERKFFKGFFGKTGKKAVKAVLWVSADGLRVVDEKTKDLIVDQTIEKVSFCAPDRNFDRAFSYICRDGTTRRWICHCFMAVKDTGERLSHAVGCAFAACLERKQKREKECGVTATFDASRTTFTREGSFRVTTATEQAEREEIMKQMQDAKKAETDKIVVGSSVAPGNTAPSPSSPTSPTSDATTSLEMNNPHAIPRRHAPIEQLARQGSFRGFPALSQKMSPFKRQLSLRINELPSTMQRKTDFPIKNAVPEVEGEAESISSLCSQITNAFSTPEDPFSSAPMTKPVTVVAPQSPTFQANGTDSAFHVLAKPAHTALAPVAMPVRETNPWAHAPDAANKEIAATCSGTEWGQSSGAASPGLFQAGHRRTPSEADRWLEEVSKSVRAQQPQASAAPLQPVLQPPPPTAISQPASPFQGNAFLTSQPVPVGVVPALQPAFVPAQSYPVANGMPYPAPNVPVVGITPSQMVANVFGTAGHPQAAHPHQSPSLVRQQTFPHYEASSATTSPFFKPPAQHLNGSAAFNGVDDGRLASADRHTEVPTGTCPVDPFEAQWAALENKSKQRTNPSPTNPFSSDLQKTFEIEL
Consider B1, for which the binding entry was “binds”.

B2: DTX (Deltex) (protein, UniProt Q86Y01 1-620)
chain: MSRPGHGGLMPVNGLGFPPQNVARVVVWEWLNEHSRWRPYTATVCHHIENVLKEDARGSVVLGQVDAQLVPYIIDLQSMHQFRQDTGTMRPVRRNFYDPSSAPGKGIVWEWENDGGAWTAYDMDICITIQNAYEKQHPWLDLSSLGFCYLIYFNSMSQMNRQTRRRRRLRRRLDLAYPLTVGSIPKSQSWPVGASSGQPCSCQQCLLVNSTRAASNAILASQRRKAPPAPPLPPPPPPGGPPGALAVRPSATFTGAALWAAPAAGPAEPAPPPGAPPRSPGAPGGARTPGQNNLNRPGPQRTTSVSARASIPPGVPALPVKNLNGTGPVHPALAGMTGILLCAAGLPVCLTRAPKPILHPPPVSKSDVKPVPGVPGVCRKTKKKHLKKSKNPEDVVRRYMQKVKNPPDEDCTICMERLVTASGYEGVLRHKGVRPELVGRLGRCGHMYHLLCLVAMYSNGNKDGSLQCPTCKAIYGEKTGTQPPGKMEFHLIPHSLPGFPDTQTIRIVYDIPTGIQGPEHPNPGKKFTARGFPRHCYLPNNEKGRKVLRLLITAWERRLIFTIGTSNTTGESDTVVWNEIHHKTEFGSNLTGHGYPDASYLDNVLAELTAQGVSEAAAKA
Turning to B2, the binding entry is “binds”.
